For at least one entry, the source does not settle the construct or the ends of the probe.
Biological target: RAD51 (Homo sapiens) (UniProt Q06609)
Assay: activity assay
Settings: gel-based D-loop assay with supercoiled pRS306; 0.5 uM RAD51, 20 nM ssDNA, 1 mM ATP, 1 mM MgCl2, pH 7.0, 37 C; purified recombinant protein; label: 5'-32P; single-stranded DNA

Amino acid sequences for entries named in this document (tags omitted). Residues count along the entry.
UniProt Q06609, 2-339: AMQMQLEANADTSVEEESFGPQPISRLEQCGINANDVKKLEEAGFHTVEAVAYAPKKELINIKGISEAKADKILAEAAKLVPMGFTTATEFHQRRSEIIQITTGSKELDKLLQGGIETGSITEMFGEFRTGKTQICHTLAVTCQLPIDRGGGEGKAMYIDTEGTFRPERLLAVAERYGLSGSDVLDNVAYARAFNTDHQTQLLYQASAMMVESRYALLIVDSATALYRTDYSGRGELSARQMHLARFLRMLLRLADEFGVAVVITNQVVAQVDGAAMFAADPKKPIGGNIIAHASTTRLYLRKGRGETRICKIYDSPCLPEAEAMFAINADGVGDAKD

TACGAATGCACACGGTGTGGTGGGCCCAGGTATTGTTAGCGGTTTGAAGCAGGCGGCAGAAGAAGTAACAAAGGAACCTAGAGGCCTTTT [90-mer D-loop ssDNA]
activity on this sequence: active

— patent publication US20190083491
